From publication doi:10.1101/495762 (bioRxiv, 2018) come the findings set out here.

Assay [1] concerns the target T1, acetylated Smc3(E570C) (S. cerevisiae) (UniProt P47037).
T1 sequence (chain, acetylated, residues not printed): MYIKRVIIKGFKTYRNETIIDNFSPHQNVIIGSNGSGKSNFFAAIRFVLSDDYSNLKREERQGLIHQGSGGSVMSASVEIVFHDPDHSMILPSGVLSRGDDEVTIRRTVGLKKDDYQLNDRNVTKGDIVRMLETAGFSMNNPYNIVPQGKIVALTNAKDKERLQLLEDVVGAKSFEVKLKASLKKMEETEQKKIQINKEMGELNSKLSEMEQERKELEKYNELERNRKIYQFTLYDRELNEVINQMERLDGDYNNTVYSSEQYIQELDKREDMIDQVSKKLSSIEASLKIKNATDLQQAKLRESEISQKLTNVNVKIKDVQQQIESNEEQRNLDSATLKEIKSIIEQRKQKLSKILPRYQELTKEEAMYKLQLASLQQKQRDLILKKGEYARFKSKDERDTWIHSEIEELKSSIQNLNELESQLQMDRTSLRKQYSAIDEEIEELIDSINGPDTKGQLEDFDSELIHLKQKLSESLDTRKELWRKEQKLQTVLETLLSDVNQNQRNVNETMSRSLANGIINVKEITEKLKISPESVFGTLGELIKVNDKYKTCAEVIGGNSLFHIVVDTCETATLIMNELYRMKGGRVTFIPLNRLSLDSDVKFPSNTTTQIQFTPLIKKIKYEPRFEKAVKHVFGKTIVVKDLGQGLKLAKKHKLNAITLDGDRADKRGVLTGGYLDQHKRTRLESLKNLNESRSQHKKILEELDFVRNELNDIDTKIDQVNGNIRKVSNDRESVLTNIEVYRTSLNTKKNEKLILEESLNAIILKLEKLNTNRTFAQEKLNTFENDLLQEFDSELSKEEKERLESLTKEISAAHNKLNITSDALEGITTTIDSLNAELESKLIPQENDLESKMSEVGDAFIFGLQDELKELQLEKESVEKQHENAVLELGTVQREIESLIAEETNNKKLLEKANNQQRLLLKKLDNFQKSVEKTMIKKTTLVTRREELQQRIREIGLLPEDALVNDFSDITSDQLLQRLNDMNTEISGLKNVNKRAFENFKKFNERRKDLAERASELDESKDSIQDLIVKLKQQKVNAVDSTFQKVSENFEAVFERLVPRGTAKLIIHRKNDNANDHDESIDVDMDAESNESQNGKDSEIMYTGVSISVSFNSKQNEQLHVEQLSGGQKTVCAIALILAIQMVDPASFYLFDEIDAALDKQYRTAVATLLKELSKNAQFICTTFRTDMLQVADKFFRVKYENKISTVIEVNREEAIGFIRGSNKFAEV
Kind of assay: cross-linking.

The target of assay [2] is T2, Smc3(E570C) (S. cerevisiae) (UniProt P47037).
T2 sequence: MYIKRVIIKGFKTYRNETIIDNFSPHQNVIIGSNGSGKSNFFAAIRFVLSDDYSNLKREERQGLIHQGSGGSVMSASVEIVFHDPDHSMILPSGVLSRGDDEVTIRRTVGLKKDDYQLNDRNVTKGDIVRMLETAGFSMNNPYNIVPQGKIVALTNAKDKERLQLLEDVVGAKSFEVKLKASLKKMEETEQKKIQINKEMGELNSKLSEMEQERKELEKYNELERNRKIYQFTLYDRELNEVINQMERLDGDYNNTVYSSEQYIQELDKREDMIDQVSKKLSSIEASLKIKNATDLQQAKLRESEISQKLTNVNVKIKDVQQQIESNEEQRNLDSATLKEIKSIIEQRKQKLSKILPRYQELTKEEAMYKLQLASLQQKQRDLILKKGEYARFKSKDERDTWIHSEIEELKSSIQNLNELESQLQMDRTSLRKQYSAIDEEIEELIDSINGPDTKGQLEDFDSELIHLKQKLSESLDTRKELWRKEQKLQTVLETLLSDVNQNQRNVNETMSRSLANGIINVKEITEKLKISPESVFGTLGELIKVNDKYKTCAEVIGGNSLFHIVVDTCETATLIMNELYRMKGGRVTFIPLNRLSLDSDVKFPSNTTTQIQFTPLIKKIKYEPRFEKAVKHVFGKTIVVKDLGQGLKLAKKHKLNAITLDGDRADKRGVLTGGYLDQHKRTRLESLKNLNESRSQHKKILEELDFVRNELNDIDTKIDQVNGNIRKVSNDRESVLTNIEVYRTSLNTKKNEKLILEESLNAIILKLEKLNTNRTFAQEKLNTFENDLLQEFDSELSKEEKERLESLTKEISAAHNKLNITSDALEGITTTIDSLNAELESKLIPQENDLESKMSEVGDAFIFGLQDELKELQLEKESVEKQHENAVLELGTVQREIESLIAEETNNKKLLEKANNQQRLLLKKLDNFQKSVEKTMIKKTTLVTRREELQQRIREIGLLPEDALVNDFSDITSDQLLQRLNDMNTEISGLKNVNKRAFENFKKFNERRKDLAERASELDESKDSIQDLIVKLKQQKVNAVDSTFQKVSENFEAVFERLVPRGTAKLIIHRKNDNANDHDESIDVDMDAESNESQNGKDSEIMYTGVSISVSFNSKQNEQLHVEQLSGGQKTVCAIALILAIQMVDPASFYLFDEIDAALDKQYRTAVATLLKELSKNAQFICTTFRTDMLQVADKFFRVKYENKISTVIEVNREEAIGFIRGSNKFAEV
Kind of assay: cross-linking.

Results are given in words; binding and its absence hold for the method and conditions named. In cells and extracts the contact can be indirect. Some binding calls cover weakened binding; strength is not graded here. Where a sequence is shown, tags or fusion partners need not be part of it.

B1: Smc1(K639C)-HA (protein, UniProt P32908 1-1225)
chain: MGRLVGLELSNFKSYRGVTKVGFGESNFTSIIGPNGSGKSNMMDAISFVLGVRSNHLRSNILKDLIYRGVLNDENSDDYDNEGAASSNPQSAYVKAFYQKGNKLVELMRIISRNGDTSYKIDGKTVSYKDYSIFLENENILIKAKNFLVFQGDVEQIAAQSPVELSRMFEEVSGSIQYKKEYEELKEKIEKLSKSATESIKNRRRIHGELKTYKEGINKNEEYRKQLDKKNELQKFQALWQLYHLEQQKEELTDKLSALNSEISSLKGKINNEMKSLQRSKSSFVKESAVISKQKSKLDYIFKDKEKLVSDLRLIKVPQQAAGKRISHIEKRIESLQKDLQRQKTYVERFETQLKVVTRSKEAFEEEIKQSARNYDKFKLNENDLKTYNCLHEKYLTEGGSILEEKIAVLNNDKREIQEELERFNKRADISKRRITEELSITGEKLDTQLNDLRVSLNEKNALHTERLHELKKLQSDIESANNQEYDLNFKLRETLVKIDDLSANQRETMKERKLRENIAMLKRFFPGVKGLVHDLCHPKKEKYGLAVSTILGKNFDSVIVENLTVAQECIAFLKKQRAGTASFIPLDTIETELPTLSLPDSQDYILSINAIDYEPEYEKAMQYVCGDSIICNTLNIACDLKWKKGIRGKLVTIEGALIHKAGLMTGGISGDANNRWDKEEYQSLMSLKDKLLIQIDELSNGQRSNSIRAREVENSVSLLNSDIANLRTQVTQQKRSLDENRLEIKYHNDLIEKEIQPKITELKKKLDDLENTKDNLVKEKEALQNNIFKEFTSKIGFTIKEYENHSGELMRQQSKELQQLQKQILTVENKLQFETDRLSTTQRRYEKAQKDLENAQVEMKSLEEQEYAIEMKIGSIESKLEEHKNHLDELQKKFVTKQSELNSSEDILEDMNSNLQVLKRERDGIKEDIEKFDLERVTALKNCKISNINIPISSETTIDDLPISSTDNEAITISNSIDINYKGLPKKYKENNTDSARKELEQKIHEVEEILNELQPNARALERYDEAEGRFEVINNETEQLKAEEKKILNQFLKIKKKRKELFEKTFDYVSDHLDAIYRELTKNPNSNVELAGGNASLTIEDEDEPFNAGIKYHATPPLKRFKDMEYLSGGEKTVAALALLFAINSYQPSPFFVLDEVDAALDITNVQRIAAYIRRHRNPDLQFIVISLKNTMFEKSDALVGVYRQQQENSSKIITLDLSNYAE
B1: the binding entry in assay [1] and in assay [2] was “binds” in each case.
